Test results taken from article PMC5603516.

Chains of the proteins cited; added tags and fusions are not shown. Lines headed by an entry give the natural chain unless they say otherwise; changes in a name come on top.
UniProt Q80XI4: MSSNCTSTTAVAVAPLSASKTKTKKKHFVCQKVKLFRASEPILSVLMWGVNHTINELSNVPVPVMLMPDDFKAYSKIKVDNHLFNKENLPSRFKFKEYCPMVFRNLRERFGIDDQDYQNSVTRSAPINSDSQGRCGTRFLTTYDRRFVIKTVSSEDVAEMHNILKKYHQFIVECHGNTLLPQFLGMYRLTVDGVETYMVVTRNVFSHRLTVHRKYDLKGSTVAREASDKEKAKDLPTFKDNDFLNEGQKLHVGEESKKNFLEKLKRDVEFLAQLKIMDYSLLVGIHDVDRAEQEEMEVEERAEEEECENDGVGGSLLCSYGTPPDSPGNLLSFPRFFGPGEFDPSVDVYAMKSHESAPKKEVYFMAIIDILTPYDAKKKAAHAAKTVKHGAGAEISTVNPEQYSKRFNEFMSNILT

Target: GST tagged PIP4k2b fragment Δ1 (N-terminus of PIP4k2b, amino acid 1-126) (mouse) (UniProt Q80XI4)
Assay: pull-down; in vitro binding: MANF-His mixed with GST-PIP4k2b (or fragment) on glutathione beads in 500 μl NP40 buffer, 4 °C overnight; washed three times; western blotting; both purified

B1: mouse MANF with a C-terminal His tag (MANF-His) (protein, UniProt Q9CXI5 22-179)
chain: LRPGDCEVCISYLGRFYQDLKDRDVTFSPATIEEELIKFCREARGKENRLCYYIGATDDAATKIINEVSKPLAHHIPVEKICEKLKKKDSQICELKYDKQIDLSTVDLKKLRVKELKKILDDWGEMCKGCAEKSDYIRKINELMPKYAPKAASARTDL
binding: binds

These are yes or no findings as the source states them, for the method shown. A result given as binding can be weak or reduced; the word gives no strength. Sequences can lack the tags named with a protein.
